Test results published in paper PMC3655167.
No constants are given. Whether binding was seen depends on the method and setting. Binding seen in cells or lysates may run through a third protein. Some results given as binding are weak or reduced against the parent protein; the word gives no strength. Tags and fused reporters may be left off the sequences shown.

Target: T1, BRP44 with a C-terminal 6×His-tag (UniProt Q9D023)
T1 sequence (chain, crosslinked with the 125I-labelled photoprobe MSDC-1101 (residue not stated)): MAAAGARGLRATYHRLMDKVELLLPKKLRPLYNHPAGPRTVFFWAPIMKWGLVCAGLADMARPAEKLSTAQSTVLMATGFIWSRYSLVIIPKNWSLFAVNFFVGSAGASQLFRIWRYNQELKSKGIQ
Experiment: co-IP; solubilized, MSDC-1101-crosslinked mitochondria from HEK293 cells stably expressing BRP44-6×His; immunoprecipitated with anti-His agarose beads; partners shown by Western blots and mass spectrometry (not shown)

binding: binds
B1: BRP44-Like (protein, UniProt Q9Y5U8 1-109)
chain: MAGALVRKAADYVRSKDFRDYLMSTHFWGPVANWGLPIAAINDMKKSPEIISGRMTFALCCYSLTFMRFAYKVQPRNWLLFACHATNEVAQLIQGGRLIKHEMTKTASA
